Measurements published in PMC12582974.

Target: T1, endogenous WAC (human (endogenous in HEK293T)), Q9BTA9
T1 chain: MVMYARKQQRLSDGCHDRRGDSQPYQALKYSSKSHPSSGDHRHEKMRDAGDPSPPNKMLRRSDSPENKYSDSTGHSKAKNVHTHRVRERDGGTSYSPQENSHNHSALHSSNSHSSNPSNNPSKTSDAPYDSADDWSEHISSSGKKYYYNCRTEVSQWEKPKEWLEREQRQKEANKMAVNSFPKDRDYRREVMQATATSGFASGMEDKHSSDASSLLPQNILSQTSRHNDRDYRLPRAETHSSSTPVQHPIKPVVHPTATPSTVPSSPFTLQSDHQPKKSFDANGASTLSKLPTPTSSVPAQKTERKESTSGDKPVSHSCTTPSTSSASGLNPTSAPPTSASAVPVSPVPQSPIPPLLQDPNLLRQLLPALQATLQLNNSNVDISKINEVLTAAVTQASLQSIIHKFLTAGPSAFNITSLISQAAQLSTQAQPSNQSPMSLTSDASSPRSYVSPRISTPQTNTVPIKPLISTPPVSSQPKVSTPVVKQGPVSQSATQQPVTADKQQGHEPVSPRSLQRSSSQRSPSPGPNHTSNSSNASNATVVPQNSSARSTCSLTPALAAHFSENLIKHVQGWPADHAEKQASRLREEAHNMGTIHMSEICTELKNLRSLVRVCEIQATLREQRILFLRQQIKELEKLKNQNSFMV
Experiment: affinity purification with mass spectrometry; endogenous WAC immunoprecipitated with a WAC antibody from HEK293T lysate; interactors identified by mass spectrometry
Settings: remark: other sources report otherwise

binding: no binding
B1: endogenous TTI2, Q6NXR4 1-508 (protein)
chain: MELDSALEAPSQEDSNLSEELSHSAFGQAFSKILHCLARPEARRGNVKDAVLKDLGDLIEATEFDRLFEGTGARLRGMPETLGQVAKALEKYAAPSKEEEGGGDGHSEAAEKAAQVGLLFLKLLGKVETAKNSLVGPAWQTGLHHLAGPVYIFAITHSLEQPWTTPRSREVAREVLTSLLQVTECGSVAGFLHGENEDEKGRLSVILGLLKPDLYKESWKNNPAIKHVFSWTLQQVTRPWLSQHLERVLPASLVISDDYQTENKILGVHCLHHIVLNVPAADLLQYNRAQVLYHAISNHLYTPEHHLIQAVLLCLLDLFPILEKTLHWKGDGARPTTHCDEVLRLILTHMEPEHRLLLRRTYARNLPAFVNRLGILTVRHLKRLERVIIGYLEVYDGPEEEARLKILETLKLLMQHTWPRVSCRLVVLLKALLKLICDVARDPNLTPESVKSALLQEATDCLILLDRCSQGRVKGLLAKIPQSCEDRKVVNYIRKVQQVSEGAPYNGT

These are yes or no findings as the source states them, for the method shown. Binding seen in cells or lysates may run through a third protein. A yes stands for co-enrichment or nearness to the bait. Other partners may have been found. No binding means not detected with the bait.
